# Measured values taken from patent publication US20230031009A1, “TREATMENT FOR CHEMOBRAIN” (YALE UNIVERSITY, priority 2020, published 2023).
# For at least one compound, name, drawing or mass did not settle the structure.
# Legend:
# [1] = test system: rats; details: chelerythrine pretreatment; cited from earlier work
# [2] = test system: female C57BL/6 mice; test: Displaced object recognition (DOR) task in paclitaxel-induced model of cognitive impairment; format: in vivo, mouse; details: for preference for the displaced object (DOR task): chelerythrine 2 mg/kg i.p. 1 h before each of 4×20 mg/kg paclitaxel
# Description: Seven-week-old female C57BL/6 mice were purchased from Charles River (Wilmington, Mass., USA) and allowed to habituate to the facility for 7 days, followed by 3 days of handling before the start of the experiment. Mice were randomly assigned into groups, with all groups represented in each cage. Depending on the treatment group, lithium chloride (Sigma-Aldrich, 12.8 mg/kg in 0.9% saline), chelerythrine chloride (Cayman Chemical, 2 mg/kg in 0.4% DMSO in saline), or the appropriate vehicle was administered intraperitoneally 1 h before injection of vehicle (20% 50:50 Cremophor EL: ethanol, 80% saline) or paclitaxel (Cayman Chemical, 20 mg/kg in 20% 50:50 Cremophor EL: ethanol, 80% saline) to induce cognitive impairment. Each mouse received a total of 4 pairs of injections over 8 days. During and after injections, mice were weighed daily and checked for general health and any sign of pain or distress.
# Behavioral experiments were adapted from a published protocol (35). Data were analyzed blinded to the experimental conditions. Open-field exploration (OFE) and displaced object recognition (DOR) tasks were carried out over two consecutive days (FIG. 4.1). The experimental arena was a 35×70×35 cm opaque, white Plexiglas chamber. The arena was covered with ˜1 cm of standard corn cob bedding. After each mouse, feces were removed, and the bedding was shaken to distribute odor cues equally. A camera was mounted 100 cm above the arena to record the test sessions. The test was conducted during the mice's light phase under low light condition (45 Lux). 1 h before testing, mice were brought up and allowed to habituate to the testing room.
# For the OFE task, each mouse was allowed to explore the arena for 10 min. The camera footage was then analyzed using ToxTrac, a published program for the total distance moved and time spent in the peripheral versus the central areas (36). For the DOR task, pairs of 50-mL tubes filled with corn cob bedding were taped cap-down to pre-determined positions in the arena. They were selected specifically because mice were unable to climb onto the pointed ends of the tubes. During the familiarization phase, each mouse was first allowed to explore the arena where the two Falcon tubes were placed in symmetrical locations for 5 min before being taken out and returned to its home cage. 2 h later, the mouse was returned to the arena for another 5 min, with 1 tube remaining in the same position and 1 tube moved to a different position. The positions of the tubes were counterbalanced. After each mouse, the tubes were sprayed with water and wiped dry to remove odor cues. The camera footage was then analyzed for bouts of interactions with the tubes. Sniffing and biting were considered to be interaction. Casual touching of the tubes in passing, or leaning onto the tubes to look around were not counted. The preference index for the displaced object was calculated as 100*(time spent with displaced object)/(total time spent with both displaced and familiar objects). The preference index for the familiar object was similarly calculated.
compound,measurement,setting,value
"COc1ccc2c(c[n+](C)c3c4cc5c(cc4ccc23)OCO5)c1OC [chelerythrine, chelerythrine chloride]",working memory after chronic restraint stress,[1],rescued the working memory
same,preference for the displaced object (DOR task),[2]; 5 DPI,prevented paclitaxel-induced memory impairment
same,preference for the displaced object (DOR task),[2]; 23 DPI,prevented paclitaxel-induced memory impairment
same,preference for the displaced object / memory acquisition (DOR task),"[2]; chelerythrine followed by vehicle (no paclitaxel), 5 DPI",did not affect memory acquisition
same,preference for the displaced object / memory acquisition (DOR task),"[2]; chelerythrine followed by vehicle (no paclitaxel), 5 DPI, listed as Chel",significant preference for the displaced object
same,memory acquisition (DOR task),"[2]; chelerythrine followed by vehicle (no paclitaxel), 23 DPI",did not affect memory acquisition
same,paclitaxel-induced deficits / memory deficits,"[2]; chelerythrine pretreatment, summary statement, time not stated",rescued memory deficits
